No constants are given. Whether binding was seen depends on the method and setting. Some results given as binding are weak or reduced against the parent protein; the word gives no strength.
Columns and labels:
[1] = biological target: T1, LexA-RXR (bacterial; human, UniProt P0A7C2 1-202; P19793 196-462, limits assumed); test: yeast interaction trap, X-gal plates (Table 1)
T1 sequence (looked up): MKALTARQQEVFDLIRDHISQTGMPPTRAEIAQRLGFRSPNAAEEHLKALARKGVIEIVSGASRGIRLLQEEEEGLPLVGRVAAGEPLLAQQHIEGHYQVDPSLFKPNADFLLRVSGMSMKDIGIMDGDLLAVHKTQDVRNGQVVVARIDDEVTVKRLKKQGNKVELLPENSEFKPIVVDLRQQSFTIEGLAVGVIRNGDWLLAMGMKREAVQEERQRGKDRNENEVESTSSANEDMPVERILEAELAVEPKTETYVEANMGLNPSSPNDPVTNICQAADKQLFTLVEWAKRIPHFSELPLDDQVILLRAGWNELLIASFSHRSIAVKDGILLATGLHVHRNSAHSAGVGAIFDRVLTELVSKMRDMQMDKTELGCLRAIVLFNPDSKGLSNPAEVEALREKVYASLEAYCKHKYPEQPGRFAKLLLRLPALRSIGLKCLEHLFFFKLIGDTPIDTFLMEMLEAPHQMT

[2] = biological target: T1, LexA-RXR; test: yeast interaction trap, X-gal plate, without ligand; B = blue (strong interaction)
[3] = biological target: T1, LexA-RXR; test: yeast interaction trap, β-galactosidase assay of liquid cultures, with and without 9-cis-RA (FIG. 1)
[4] = biological target: T1, LexA-RXR; test: yeast interaction trap, X-gal plate, with 9-cis-RA; B = blue (strong interaction)
[5] = biological target: T2, LexA-MB67 (bacterial, UniProt P0A7C2 1-202; Q14994 76-348, limits assumed); test: yeast interaction trap, X-gal plates
T2 construct: Made by PCR, 'analogous' to LexA-RXR and LexA-TR; also called Lex fusion MB67
T2 sequence (looked up): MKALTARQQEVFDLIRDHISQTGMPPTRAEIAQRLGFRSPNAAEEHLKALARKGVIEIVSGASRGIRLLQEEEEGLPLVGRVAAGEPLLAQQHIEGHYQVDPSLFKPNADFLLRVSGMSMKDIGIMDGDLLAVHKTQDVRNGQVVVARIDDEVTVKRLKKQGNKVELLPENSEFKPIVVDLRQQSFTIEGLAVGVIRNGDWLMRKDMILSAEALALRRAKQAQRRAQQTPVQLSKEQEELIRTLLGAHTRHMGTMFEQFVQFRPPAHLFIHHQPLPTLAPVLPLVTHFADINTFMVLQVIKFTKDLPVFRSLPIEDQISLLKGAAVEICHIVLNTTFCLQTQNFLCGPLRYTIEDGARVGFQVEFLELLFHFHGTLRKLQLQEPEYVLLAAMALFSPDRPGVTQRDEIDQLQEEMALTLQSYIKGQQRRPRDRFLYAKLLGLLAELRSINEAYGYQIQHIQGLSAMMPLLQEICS

[6] = biological target: T2, LexA-MB67; test: yeast interaction trap, X-gal plates (Table 1)
[7] = biological target: T2, LexA-MB67; test: yeast interaction trap, X-gal plate; B = blue (strong interaction)
[8] = biological target: T3, LexA-TR (bacterial; rat, UniProt P0A7C2 1-202; P18113 170-461, limits assumed); test: yeast interaction trap, X-gal plates (Table 1)
T3 construct: also called Lex fusion TR
T3 sequence (looked up): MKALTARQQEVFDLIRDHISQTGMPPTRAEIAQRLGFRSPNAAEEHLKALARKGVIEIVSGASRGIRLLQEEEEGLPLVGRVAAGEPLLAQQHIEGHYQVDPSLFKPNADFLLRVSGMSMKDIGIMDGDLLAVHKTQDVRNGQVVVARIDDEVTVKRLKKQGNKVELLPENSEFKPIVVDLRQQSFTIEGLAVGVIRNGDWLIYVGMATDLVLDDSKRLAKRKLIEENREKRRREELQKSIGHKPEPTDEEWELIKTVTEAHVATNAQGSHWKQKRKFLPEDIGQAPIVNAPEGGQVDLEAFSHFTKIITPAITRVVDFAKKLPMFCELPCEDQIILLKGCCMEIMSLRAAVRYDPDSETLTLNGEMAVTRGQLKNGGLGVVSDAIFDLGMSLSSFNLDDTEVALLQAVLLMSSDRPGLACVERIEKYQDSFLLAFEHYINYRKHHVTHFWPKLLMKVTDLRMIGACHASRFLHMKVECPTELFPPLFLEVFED

[9] = biological target: T3, LexA-TR; test: yeast interaction trap, X-gal plate, with T3; B = blue (strong interaction)
[10] = biological target: T3, LexA-TR; test: yeast interaction trap, X-gal plate, without ligand; B = blue (strong interaction)
[11] = biological target: T3, LexA-TR; test: yeast interaction trap, X-gal plates, with and without T3

Measured: binding

B1: B42-RIP15 (other, not shown: large carriers)
chain: EEQIRKKRIQKQQQQQPPPPSEPAASSSGRPAASPGTSEASSQGSGEGEGIQLTAAQELMIQQLVAAQLQCNKRSFSDQPKVTPWPLGADPQSRDARQQRFAHFTELAIISVQEIVDFAKQVPGFLQLGREDQIALLKASTIEIMLLQTARRYNHETECITFLKDFTYSKDDFHRAGLQVEFINPIFEFSRAMRRLGLDDAEYALLIAINIFSADRPNVQEPSRVEALQQPYVEALLSYTRIKRPQDQLRFPRMLMKLVSLRTLSSVHSEQVFALRLQDKKLPPLLSEIWDVHE
notes: Original yeast clone; Its B42 fusion junction is near the beginning of the hinge (D) domain, with no residue number stated; also called B42 fusion 15; RIP15 chimera
binds: [1] | [2] | [3] | [4]

B2: B42-RIP110 (protein, not shown: large carriers)
chain: SPSCGFQRKDLETSSCVSIKKKRRLEDLLIVISDSDGEETKEENGLQKTKTKQSNRSKCLAKRKVAHMSEEEQFALALKMSEQEAREVNNQEEKEEELLRKAIAESLNSCWSSAASATRSRPLAAELSSHSHQENTKDSGTTEGVWQLVPPSLCKGSHVSQGNEAEQRKEPWDHNENTEEEPVSGSSGSWDQSSQPVFENENVKCFDRCTGHLAEHTQCGKPQESTGSGYAFSKAVQGRGDTSRQCLPIPADTKGLQDTGGTVHYYWGIPFCPAGVDPNQYTNVILCQLEVYQKSLKMAQRQLVKKRGFGEPVLPRPPFLIQNECGQEDQTSDKNEGISEDMGDEAKEERQESRASVWHSETKDFQKSPIKSLKQKLLLEEEPTTSRGQSSQGLFVEETSEEGLKSSEGDNSVPTTQSIAALTSKRSLVLMPESSAEEITVCPETQLSFLEPLDLNREDSPDSRELPIEVRMAVGDKQVANREDCMKENPPPAVSSSTRVSCPLCNQDFPPTKIEQHAMYCNGLMEQETVLTRRRREAKNKSDGRTAAQPALDANRKEKCYLCKSLVPLGEYQCHVEACLQLAKVDREDGIEGTRRPRVCAPVEGKQQQRLKKSKDKGHSQGRLLSLLEQSEHRTTGVEKKPKYSEVRTFRMPSPEVEEASCSREMQSTLSQLNLNESPIKSFVPVSEATNCLVDFKEQFAFRSRTKSGRERRRKS
binds: [5] | [6] | [7]

B3: B42-PPAR (plasmid isolated from the screening, as used in Table 1) (other, mouse, UniProt P23204 91-468, looked up, not shown: large carriers)
chain: DESPGSALNIECRICGDKASGYHYGVHACEGCKGFFRRTIRLKLVYDKCDRSCKIQKKNRNKCQYCRFHKCLSVGMSHNAIRFGRMPRSEKAKLKAEILTCEHDLKDSETADLKSLGKRIHEAYLKNFNMNKVKARVILAGKTSNNPPFVIHDMETLCMAEKTLVAKMVANGVEDKEAEVRFFHCCQCMSVETVTELTEFAKAIPGFANLDLNDQVTLLKYGVYEAIFTMLSSLMNKDGMLIAYGNGFITREFLKNLRKPFCDIMEPKFDFAMKFNALELDDSDISLFVAAIICCGDRPGLLNIGYIEKLQEGIVHVLKLHLQSNHPDDTFLFPKLLQKMVDLRQLVTEHAQLVQVIKKTESDAALHPLLQEIYRDMY
notes: 'For B42-PPAR, the plasmid isolated from the screening was used'; also called B42 fusion PPAR
binds: [2] | [4]

B4: B42-RIP13 (other, not shown: large carriers)
chain: DALAALVDAAASAPQMDVSKTKESKHEAARLEENLRSRSAAVSEQQQLEQKNLEVEKRSVQCVCTSSALPSGKAQPHASVVYSEAGKDKGPPPKSRYEEELRTRGKTTITAANFIDVTITRQIASDKDARERGSQSSDSSSSLSSHRYETASDAIEVISPASSPAPPQEKPQAYQPDMVKANQAENESTRQYEGPLHHYRSQQESPSPQQQPPLPPSSQSEGMGQVPRTHRLITLADHICQIITQDFARNQVPSQPSTSTFQTSPSALSSTPVRTKTSSRYSPESQSQTVLHPRPGPRVSPENLVDKSRGSRPGKSPERSHIPSEPYEPISPPQGPAVHEKQDSMLLLSQRGVDPAEQRSDSRSPGSISYLPSFFTKLESTSPMVKSKKQEIFRKLNSSGGGDSDMAAAQPGTEIFNLPAVTTSGAVSSRSHSFADPASNLGLEDIIRKALMGSFDDKVEDHGVVMSHPVGIMPGSASTSVVTSSEARRDEGEPSPHAGVCKPKLINKSNSRKSKSPIPGQSYLGTERPSSVSSVHSEGDYHRQTPGWAWEDRPSSTGSTQFPYNPLTIRMLSSTPPTQIACAPSAITQAAPHQQNRIWEREPAPLLSAQYETLSDSDD
binds: [8] | [6] | [7] | [9] | [10] | [11]
